The text below walks through data of paper PMC11904033, “Lanatoside C activates the E3 ligase STUB1 to inhibit FOXP3 transcriptional activity and promote antitumor immunity” (EMBO Molecular Medicine, 2025).

Sequences of proteins named here, by UniProt entry; tags and fusion partners are left off. Residues count along the entry.
UniProt Q9BZS1, residues 1-417: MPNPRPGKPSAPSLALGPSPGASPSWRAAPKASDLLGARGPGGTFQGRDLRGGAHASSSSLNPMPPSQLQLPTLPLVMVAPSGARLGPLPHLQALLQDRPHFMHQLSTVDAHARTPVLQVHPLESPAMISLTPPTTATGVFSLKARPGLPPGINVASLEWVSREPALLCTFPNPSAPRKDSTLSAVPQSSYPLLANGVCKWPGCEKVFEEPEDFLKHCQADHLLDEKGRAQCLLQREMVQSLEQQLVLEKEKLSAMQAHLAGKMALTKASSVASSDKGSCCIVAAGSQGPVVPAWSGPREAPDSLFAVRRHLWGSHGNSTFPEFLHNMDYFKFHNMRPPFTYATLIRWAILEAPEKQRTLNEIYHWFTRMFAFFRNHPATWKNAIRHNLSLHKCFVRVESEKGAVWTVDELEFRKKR
UniProt Q01196: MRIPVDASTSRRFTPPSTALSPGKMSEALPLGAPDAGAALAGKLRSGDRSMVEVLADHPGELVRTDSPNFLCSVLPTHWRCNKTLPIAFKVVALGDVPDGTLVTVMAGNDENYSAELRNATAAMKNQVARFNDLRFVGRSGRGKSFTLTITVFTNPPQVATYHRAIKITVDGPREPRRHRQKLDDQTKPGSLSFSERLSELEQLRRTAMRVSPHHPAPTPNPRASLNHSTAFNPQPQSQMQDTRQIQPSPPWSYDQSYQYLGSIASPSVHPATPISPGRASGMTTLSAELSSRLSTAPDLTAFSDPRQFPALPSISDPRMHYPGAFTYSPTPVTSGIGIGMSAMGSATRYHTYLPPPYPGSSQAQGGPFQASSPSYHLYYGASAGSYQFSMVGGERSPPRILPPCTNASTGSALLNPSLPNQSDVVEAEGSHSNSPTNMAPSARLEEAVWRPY
UniProt Q9UNE7: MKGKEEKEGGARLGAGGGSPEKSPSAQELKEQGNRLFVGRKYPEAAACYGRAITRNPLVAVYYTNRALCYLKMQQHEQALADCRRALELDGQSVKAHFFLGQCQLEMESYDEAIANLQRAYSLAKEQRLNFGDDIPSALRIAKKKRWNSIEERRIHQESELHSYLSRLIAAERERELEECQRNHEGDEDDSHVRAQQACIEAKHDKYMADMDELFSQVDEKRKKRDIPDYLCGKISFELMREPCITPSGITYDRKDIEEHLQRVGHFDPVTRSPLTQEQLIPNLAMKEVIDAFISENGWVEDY

These are yes or no findings as the source states them, for the method shown. Binding seen in cells or lysates may run through a third protein. A yes stands for co-enrichment or nearness to the bait. Other partners may have been found.

For one experiment, the target named is FOXP3-Flag (UniProt Q9BZS1). In words: affinity purification with mass spectrometry; precipitate of FOXP3-Flag, DMSO group and Lac group; cells not named.
The target of experiment [1] is RUNX1-Clu-Myc (RUNX1 fused to the C-terminal half of firefly luciferase, Myc) (UniProt Q01196). In words: affinity purification with mass spectrometry; 293T-RUNX1-Clu-Myc cells pretreated with MG132 (5 uM) for 1 h, then Lac for 6 h; immunoprecipitation with RUNX1 antibody or IgG; three biological replicates.

Take “RUNX1 (precipitated by FOXP3-Flag, Dataset EV1) (from UniProt Q01196 1-453)”: the binding result in the experiment with FOXP3-Flag was “binds”.
Turning to “STUB1 (STIP1 homology and U-box-containing protein 1), endogenous (from UniProt Q9UNE7 1-303)”, the binding result in experiment [1] is “binds”.
